According to US20200062817A1:
Where a chain is given by its changes, count along the chain named. Results are given in words; binding and its absence hold for the method and conditions named. Binding seen in cells or lysates may run through a third protein. Some entries that bind do so weakly or less than the wild type. Tags and fused reporters may be left off the sequences shown.

The chains behind the UniProt entries cited, without tags or fusion partners. Where a name states a change or a piece, a line headed by the entry shows the natural chain unless it says otherwise.
UniProt G3I8R9: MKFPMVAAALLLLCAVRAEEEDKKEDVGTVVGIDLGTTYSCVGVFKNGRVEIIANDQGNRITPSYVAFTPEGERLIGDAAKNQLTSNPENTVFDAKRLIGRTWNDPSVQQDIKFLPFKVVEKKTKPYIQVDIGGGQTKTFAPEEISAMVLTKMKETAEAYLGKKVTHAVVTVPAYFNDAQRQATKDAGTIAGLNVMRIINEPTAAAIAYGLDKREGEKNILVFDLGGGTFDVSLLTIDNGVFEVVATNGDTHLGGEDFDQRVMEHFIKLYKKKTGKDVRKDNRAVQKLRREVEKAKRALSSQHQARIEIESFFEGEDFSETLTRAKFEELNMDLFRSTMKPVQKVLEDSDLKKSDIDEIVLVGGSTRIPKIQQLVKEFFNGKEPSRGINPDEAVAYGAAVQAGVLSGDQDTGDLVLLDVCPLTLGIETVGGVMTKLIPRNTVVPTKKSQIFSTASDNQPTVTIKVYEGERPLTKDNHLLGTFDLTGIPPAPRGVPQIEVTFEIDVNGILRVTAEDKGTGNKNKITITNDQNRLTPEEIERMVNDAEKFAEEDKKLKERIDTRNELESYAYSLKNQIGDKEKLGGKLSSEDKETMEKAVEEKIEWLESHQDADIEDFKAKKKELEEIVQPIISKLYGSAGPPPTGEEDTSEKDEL

Key:
[1] = target: T1, hIL-27α^L162C, with C-terminal (GS)4-linker and V5 tag (human) (UniProt Q8NEV9); experiment: co-immunoprecipitation with anti-V5 from 293T lysate, immunoblot against BiP
T1 sequence: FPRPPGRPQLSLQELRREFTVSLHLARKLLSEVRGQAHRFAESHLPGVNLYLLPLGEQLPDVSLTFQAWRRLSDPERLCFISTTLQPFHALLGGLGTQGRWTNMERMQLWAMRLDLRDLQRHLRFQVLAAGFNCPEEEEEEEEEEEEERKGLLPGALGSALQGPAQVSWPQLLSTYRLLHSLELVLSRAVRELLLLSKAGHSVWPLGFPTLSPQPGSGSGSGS

[2] = target: T2, human IL-27 alpha-subunit (hIL-27α), wild type, with C-terminal (GS)4-linker and V5 tag (human) (UniProt Q8NEV9); experiment: as above
T2 sequence: T1 sequence with C134L

Substance: hamster BiP (immunoglobulin heavy-chain binding protein) (from UniProt G3I8R9 19-654)
- binding [1]: binds
- binding [2]: binds
